One assay deals with NLRP3 (UniProt Q96P20). Put plainly: co-IP; co-immunoprecipitation of NLRP3, ASC and CASP1 or CASP8; bait, cells, tags and conditions not told in the text shown.
Another assay concerns the target ASC (UniProt Q9ULZ3). The description is as above.

Amino acid sequences for entries named in this document (tags omitted).
UniProt Q96P20: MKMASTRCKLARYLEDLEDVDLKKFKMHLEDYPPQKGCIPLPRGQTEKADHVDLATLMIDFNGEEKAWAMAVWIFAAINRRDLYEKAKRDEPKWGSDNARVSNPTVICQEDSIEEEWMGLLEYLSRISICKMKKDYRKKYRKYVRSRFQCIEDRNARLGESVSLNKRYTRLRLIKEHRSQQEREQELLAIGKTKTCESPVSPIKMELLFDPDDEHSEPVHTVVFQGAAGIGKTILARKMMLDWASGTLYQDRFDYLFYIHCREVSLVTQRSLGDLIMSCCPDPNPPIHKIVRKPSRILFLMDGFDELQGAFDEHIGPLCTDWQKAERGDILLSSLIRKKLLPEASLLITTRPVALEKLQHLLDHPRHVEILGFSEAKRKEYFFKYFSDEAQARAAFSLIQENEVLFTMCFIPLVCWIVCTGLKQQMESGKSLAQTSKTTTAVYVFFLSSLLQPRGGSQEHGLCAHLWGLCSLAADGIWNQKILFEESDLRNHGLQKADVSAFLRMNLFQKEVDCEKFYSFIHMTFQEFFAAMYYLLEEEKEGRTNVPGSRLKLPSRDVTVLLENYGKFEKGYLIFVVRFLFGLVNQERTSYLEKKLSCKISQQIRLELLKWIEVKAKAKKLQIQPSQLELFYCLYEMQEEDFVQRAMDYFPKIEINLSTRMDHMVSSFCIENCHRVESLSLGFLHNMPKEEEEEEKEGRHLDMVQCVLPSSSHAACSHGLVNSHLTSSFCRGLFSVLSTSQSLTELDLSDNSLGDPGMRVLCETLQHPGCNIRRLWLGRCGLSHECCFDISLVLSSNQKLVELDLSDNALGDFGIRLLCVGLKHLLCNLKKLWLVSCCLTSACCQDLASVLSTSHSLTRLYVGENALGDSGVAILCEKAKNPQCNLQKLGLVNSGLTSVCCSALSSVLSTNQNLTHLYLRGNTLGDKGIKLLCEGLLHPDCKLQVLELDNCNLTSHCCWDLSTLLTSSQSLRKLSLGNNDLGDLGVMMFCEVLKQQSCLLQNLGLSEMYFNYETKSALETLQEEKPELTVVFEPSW
UniProt Q9ULZ3: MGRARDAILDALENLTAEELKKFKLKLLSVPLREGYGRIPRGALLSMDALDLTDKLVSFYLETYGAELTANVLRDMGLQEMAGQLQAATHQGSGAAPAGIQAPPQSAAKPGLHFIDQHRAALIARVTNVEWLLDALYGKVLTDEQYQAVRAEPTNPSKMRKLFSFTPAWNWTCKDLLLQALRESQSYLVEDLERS
UniProt Q14790: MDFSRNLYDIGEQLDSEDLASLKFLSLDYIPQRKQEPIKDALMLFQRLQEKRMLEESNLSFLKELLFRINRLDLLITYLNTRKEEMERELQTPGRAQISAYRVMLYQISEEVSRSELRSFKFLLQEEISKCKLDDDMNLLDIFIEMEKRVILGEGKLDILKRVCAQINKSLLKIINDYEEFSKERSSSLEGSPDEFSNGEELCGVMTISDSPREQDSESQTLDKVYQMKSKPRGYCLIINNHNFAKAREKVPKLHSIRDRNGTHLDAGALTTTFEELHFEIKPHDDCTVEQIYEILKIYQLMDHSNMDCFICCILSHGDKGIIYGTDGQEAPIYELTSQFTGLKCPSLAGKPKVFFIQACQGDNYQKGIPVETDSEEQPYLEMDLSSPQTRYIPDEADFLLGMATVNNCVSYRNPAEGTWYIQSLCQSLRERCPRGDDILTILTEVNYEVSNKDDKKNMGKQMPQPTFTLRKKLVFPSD

No constants are given. Whether binding was seen depends on the method and setting. Binding seen in cells or lysates may run through a third protein. Some entries that bind do so weakly or less than the wild type.

On to Caspase-8 (from UniProt Q14790 1-479), for which the binding result with NLRP3 and with ASC was “binds” in each case.

(Values after PMC9718385.)
